Test results from PubChem BioAssay AID1508610 (The Scripps Research Institute Molecular Screening Center, 2020).
Active and inactive are the calls of the source. How the calls were made is not given here.

Sequences of proteins named here, by UniProt entry; tags and fusion partners are left off. A change or cut given only in a name is not applied to a line headed by its entry.
UniProt Q8TDV0: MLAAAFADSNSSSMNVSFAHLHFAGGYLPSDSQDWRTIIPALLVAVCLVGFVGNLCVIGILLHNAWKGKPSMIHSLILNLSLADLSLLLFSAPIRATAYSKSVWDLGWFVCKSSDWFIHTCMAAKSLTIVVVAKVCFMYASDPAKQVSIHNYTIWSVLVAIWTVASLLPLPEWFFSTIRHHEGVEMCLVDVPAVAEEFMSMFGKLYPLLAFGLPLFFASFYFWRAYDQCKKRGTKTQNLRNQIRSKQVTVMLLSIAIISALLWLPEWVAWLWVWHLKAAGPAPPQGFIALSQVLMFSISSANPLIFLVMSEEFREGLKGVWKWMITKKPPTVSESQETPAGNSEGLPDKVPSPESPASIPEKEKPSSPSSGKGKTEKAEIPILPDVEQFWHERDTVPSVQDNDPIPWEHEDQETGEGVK

Target: G-protein coupled receptor 151 (Homo sapiens) (UniProt Q8TDV0)
Experiment: GPR151 activator potency, dose response, cell-based (AID 1508610)
Conditions: cell-based GPR151 activation reporter

SMILES: O=C(/C=C/c1ccccc1)Nc1ccccc1O
- EC50: inactive: > 39.7 µM
